According to the supplement of paper PMC10849652:
The list shows a part of the results.

By UniProt entry, the sequences of proteins in these tests, tags left out. Where a name states a change or a piece, a line headed by the entry shows the natural chain unless it says otherwise.
UniProt P48637: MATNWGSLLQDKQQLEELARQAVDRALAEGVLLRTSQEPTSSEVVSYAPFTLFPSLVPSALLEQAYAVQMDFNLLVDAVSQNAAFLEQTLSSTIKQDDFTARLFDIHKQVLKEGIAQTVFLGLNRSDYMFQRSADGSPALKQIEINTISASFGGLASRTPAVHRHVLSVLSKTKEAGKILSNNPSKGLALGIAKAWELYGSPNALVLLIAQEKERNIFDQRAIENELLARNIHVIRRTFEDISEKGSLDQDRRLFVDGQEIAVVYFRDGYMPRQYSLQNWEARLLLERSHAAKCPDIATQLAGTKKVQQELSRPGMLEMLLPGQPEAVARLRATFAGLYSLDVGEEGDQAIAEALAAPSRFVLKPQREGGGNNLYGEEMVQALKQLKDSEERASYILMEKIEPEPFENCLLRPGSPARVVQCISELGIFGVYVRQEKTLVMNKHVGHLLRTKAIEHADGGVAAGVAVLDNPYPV
UniProt O15379: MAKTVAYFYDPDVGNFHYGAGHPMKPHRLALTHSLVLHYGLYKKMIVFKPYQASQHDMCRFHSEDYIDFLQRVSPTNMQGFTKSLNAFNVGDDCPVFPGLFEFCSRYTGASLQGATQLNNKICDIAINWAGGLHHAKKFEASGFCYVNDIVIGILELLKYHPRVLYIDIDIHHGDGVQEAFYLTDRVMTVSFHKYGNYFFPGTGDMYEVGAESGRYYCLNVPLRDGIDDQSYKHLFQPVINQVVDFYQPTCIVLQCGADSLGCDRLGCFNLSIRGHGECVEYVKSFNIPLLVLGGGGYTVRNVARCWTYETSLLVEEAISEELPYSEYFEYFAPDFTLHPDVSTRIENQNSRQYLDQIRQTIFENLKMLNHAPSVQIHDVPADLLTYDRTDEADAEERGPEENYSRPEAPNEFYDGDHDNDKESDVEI
UniProt P16401, whole entry, looked up: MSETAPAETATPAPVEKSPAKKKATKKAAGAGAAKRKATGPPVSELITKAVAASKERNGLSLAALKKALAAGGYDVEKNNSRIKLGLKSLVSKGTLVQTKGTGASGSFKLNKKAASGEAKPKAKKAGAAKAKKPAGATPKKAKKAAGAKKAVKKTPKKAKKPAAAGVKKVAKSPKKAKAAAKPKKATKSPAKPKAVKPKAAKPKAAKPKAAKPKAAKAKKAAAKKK
UniProt P35269, whole entry, looked up: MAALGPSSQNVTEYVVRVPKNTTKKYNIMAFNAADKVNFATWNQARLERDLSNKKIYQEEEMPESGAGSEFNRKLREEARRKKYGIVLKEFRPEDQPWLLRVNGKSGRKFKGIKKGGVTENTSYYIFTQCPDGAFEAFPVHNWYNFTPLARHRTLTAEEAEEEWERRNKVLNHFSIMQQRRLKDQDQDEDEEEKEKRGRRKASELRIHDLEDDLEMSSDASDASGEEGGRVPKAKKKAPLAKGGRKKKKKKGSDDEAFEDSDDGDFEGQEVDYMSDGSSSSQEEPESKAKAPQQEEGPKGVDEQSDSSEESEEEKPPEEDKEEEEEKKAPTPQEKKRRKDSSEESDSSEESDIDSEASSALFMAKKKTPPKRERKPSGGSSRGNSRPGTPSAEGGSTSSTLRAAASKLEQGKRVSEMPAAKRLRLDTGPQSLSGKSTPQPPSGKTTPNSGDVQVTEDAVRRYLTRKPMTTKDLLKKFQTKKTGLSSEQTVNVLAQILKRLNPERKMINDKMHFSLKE
UniProt Q8TDG4: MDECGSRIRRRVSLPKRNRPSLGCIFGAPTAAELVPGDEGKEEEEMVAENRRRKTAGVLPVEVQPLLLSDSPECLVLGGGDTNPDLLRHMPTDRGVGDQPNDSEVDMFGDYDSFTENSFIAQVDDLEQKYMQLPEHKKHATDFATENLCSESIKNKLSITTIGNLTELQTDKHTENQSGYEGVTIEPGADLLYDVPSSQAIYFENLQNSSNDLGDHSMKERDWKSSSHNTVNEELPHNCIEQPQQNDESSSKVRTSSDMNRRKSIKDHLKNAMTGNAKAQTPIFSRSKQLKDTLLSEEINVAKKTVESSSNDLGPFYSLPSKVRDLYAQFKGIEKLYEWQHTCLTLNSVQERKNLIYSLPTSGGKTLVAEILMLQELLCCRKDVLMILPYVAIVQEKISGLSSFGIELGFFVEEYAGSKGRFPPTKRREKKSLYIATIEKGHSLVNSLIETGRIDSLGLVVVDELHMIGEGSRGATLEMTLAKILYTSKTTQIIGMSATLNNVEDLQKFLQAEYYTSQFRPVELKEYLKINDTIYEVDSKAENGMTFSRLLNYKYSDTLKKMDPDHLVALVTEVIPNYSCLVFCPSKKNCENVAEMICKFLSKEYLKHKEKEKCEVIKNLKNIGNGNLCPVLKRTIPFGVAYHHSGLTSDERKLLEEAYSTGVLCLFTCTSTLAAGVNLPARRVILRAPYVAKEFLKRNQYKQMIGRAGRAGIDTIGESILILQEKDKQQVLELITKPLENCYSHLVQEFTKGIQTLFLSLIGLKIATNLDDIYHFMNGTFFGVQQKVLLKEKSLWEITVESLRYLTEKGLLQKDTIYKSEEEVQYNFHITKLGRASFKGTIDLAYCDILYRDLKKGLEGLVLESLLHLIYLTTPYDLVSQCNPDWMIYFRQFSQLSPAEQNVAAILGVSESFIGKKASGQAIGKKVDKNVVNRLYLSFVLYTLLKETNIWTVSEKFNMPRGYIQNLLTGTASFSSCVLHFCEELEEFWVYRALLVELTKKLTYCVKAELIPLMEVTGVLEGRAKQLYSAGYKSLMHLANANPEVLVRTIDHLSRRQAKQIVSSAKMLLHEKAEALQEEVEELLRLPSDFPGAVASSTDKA
UniProt Q9NRV9: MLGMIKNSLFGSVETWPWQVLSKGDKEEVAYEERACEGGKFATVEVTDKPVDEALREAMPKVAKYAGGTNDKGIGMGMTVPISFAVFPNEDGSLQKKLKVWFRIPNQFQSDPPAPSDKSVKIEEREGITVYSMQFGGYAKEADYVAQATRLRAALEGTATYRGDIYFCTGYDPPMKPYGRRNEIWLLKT
UniProt Q9NYZ3: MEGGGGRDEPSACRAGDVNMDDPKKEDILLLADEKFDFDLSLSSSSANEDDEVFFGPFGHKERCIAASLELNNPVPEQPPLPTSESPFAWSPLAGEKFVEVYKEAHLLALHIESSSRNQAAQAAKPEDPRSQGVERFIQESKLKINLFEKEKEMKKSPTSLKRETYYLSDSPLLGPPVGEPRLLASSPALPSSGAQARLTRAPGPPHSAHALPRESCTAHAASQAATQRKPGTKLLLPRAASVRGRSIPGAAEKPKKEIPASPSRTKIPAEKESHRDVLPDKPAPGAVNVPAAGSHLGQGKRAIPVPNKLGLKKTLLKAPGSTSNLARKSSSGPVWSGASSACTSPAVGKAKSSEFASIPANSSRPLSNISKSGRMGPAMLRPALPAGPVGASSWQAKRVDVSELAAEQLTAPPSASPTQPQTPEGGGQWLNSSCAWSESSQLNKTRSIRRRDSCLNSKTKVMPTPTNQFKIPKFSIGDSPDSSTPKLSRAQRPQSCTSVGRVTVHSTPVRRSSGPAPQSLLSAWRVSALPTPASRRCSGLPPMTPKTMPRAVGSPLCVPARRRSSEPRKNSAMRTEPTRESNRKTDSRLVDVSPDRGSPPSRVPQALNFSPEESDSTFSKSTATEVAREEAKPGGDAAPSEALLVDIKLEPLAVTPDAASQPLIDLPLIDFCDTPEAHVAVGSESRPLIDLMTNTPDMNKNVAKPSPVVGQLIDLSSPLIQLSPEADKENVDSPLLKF
UniProt P02724: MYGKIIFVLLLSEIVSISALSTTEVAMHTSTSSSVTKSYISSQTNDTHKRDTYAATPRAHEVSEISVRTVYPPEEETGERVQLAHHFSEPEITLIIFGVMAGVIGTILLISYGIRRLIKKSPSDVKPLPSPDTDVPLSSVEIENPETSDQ
UniProt Q8WW33: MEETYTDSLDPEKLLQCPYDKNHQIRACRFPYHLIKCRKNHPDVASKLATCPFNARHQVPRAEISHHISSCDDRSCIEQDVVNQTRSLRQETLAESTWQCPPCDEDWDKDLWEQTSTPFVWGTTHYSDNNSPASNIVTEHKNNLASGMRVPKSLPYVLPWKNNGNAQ
UniProt P15170, whole entry, looked up: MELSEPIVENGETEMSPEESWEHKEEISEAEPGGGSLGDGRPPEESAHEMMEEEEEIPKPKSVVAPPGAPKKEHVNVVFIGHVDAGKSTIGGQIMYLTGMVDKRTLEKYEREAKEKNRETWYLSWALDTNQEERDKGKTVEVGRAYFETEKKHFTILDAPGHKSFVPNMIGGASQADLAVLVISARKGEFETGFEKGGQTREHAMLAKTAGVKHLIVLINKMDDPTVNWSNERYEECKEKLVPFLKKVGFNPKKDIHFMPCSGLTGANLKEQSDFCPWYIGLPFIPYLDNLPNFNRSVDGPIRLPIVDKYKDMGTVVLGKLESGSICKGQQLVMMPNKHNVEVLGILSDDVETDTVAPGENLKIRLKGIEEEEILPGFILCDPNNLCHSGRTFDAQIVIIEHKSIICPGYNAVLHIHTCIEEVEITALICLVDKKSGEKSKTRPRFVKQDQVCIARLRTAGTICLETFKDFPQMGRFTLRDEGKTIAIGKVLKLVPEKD
UniProt Q00341: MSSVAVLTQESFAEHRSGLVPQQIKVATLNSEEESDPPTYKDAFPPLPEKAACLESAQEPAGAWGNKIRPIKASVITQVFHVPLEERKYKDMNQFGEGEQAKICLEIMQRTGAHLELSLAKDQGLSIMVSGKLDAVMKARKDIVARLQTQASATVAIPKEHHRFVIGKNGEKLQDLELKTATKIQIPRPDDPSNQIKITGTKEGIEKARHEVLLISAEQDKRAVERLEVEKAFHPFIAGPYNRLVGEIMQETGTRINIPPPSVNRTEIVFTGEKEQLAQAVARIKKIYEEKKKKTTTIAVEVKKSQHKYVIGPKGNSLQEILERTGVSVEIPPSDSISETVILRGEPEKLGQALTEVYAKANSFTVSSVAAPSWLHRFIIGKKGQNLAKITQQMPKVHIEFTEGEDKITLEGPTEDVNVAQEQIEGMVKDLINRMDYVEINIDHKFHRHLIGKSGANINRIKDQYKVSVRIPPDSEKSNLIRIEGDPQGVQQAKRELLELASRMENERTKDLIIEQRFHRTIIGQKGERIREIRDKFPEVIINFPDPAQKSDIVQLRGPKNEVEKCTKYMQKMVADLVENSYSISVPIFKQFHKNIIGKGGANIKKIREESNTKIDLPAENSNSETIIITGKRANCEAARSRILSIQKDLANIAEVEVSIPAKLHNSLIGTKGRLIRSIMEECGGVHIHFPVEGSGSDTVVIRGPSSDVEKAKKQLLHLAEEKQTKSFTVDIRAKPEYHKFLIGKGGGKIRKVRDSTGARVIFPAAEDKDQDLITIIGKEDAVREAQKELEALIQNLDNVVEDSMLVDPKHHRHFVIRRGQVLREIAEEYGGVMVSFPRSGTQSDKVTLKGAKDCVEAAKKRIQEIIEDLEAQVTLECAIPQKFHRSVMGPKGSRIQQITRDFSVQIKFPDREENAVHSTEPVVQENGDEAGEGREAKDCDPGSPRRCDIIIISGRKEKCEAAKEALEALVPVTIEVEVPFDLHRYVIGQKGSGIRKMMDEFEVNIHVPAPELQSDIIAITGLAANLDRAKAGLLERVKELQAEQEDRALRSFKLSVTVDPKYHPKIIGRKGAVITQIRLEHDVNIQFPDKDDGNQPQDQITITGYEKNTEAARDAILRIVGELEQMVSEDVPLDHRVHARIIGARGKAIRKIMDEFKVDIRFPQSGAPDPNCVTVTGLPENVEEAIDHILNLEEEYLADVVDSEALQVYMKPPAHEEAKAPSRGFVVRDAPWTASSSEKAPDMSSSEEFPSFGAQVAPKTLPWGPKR
UniProt P16403, whole entry, looked up: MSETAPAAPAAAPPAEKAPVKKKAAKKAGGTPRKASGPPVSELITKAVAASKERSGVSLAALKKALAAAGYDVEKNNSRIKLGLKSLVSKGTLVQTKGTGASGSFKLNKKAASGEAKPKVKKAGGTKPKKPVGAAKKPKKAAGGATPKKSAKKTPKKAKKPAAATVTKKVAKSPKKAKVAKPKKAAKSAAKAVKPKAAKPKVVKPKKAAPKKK
UniProt Q9BXL5: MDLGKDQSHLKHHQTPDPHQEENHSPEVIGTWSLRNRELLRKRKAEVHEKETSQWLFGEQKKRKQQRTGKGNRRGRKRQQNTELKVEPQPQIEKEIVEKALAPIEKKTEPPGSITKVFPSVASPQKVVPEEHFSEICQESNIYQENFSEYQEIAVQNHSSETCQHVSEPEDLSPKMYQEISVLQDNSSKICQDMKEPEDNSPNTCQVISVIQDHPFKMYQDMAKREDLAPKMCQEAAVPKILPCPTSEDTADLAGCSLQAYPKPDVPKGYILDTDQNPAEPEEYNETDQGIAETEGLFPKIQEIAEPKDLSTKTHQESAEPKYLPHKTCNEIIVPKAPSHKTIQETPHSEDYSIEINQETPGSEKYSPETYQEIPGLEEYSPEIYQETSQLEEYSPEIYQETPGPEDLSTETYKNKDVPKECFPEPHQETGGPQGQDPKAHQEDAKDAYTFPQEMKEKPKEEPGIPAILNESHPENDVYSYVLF

Columns and labels:
Experiment in all cases: log2 fold change, soluble protein after heating vs DMSO (PISA); higher = thermal stabilisation; K562 cells, 10 uM, 30 min; active = over 0.2 and 3.5 SD of the protein, either way, in both replicates (recomputed)
[1] = compound: CS(=O)(=O)c1ccc(-c2cnc(N)c(C(=O)Nc3ccccc3)n2)cc1
Procedure, shortened: (§1)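 K562 cells (2×10^6 cells/mL) were treated with 10 μM compound for 30 min, and aliquots were heated for 3 min over 48°C-58°C. Pooled aliquots were extracted in PBS with 0.5% NP-40 at 4°C, and the supernatant after 21,000xg for 90 min was measured by TMTpro 16plex LC-MS/MS with channel sums equalised. Reported thermal stability, relative to control samples and from duplicates, is a log2 fold change.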

[2] = compound: C[C@@H](Oc1cc(-c2cnn(C3CCNCC3)c2)cnc1N)c1c(Cl)ccc(F)c1Cl [crizotinib]
Procedure, shortened: as §1

[3] = compound: C[C@@H]1COCCN1C2=NC(=NC(=C2)C3(CC3)S(=O)(=O)C)C4=C5C=CNC5=CC=C4
Procedure, shortened: as §1

[4] = compound: C[C@H](C1=CC=C(C=C1)C(=O)NC2=C3C=CNC3=NC=C2)N
Procedure, shortened: as §1

[5] = compound: C[C@H](Nc1ncnc2nc[nH]c12)c1cc2cccc(Cl)c2c(=O)n1-c1ccccc1 [duvelisib]
Procedure, shortened: as §1

[6] = compound: Cc1cc(Nc2cc(CN3CCOCC3)c3nc(C)c(Cc4ccc(Cl)cc4F)n3n2)n[nH]1 [gandotinib]
Procedure, shortened: as §1

[7] = compound: Cc1cc(Nc2cc(N3CCN(C)CC3)nc(Sc3ccc(NC(=O)C4CC4)cc3)n2)n[nH]1 [tozasertib]
Procedure, shortened: as §1

[8] = compound: Cc1cc(SCc2sc(-c3ccc(C(F)(F)F)cc3)nc2C)ccc1OCC(=O)O
Procedure, shortened: as §1

[9] = compound: Cc1ccc(-n2nc(C(C)(C)C)cc2NC(=O)Nc2ccc(OCCN3CCOCC3)c3ccccc23)cc1 [doramapimod]
Procedure, shortened: as §1

[10] = compound: Cc1ccc(C(=O)N(CCCN)[C@@H](c2nc3cc(Cl)ccc3c(=O)n2Cc2ccccc2)C(C)C)cc1 [ispinesib]
Procedure, shortened: as §1

[11] = compound: Cc1ccc(NC(=O)c2ccc(CN3CC[C@H](N(C)C)C3)c(C(F)(F)F)c2)cc1Nc1nccc(-c2cncnc2)n1 [bafetinib]
Procedure, shortened: as §1

[12] = compound: Cc1cccc(CC(=O)N2CCc3c2ccc(-c2cn(C)c4ncnc(N)c24)c3F)n1
Procedure, shortened: as §1

[13] = compound: Cc1cn(-c2cc(NC(=O)c3ccc(C)c(Nc4nccc(-c5cccnc5)n4)c3)cc(C(F)(F)F)c2)cn1 [nilotinib]
Procedure, shortened: as §1

[14] = compound: Cc1nc(Nc2n[nH]c3c2CN(C(=O)N[C@H](CN(C)C)c2ccccc2)C3(C)C)c2sccc2n1
Procedure, shortened: as §1

[15] = compound: Cc1nc(Nc2ncc(C(=O)Nc3c(C)cccc3Cl)s2)cc(N2CCN(CCO)CC2)n1 [dasatinib]
Procedure, shortened: as §1

[16] = compound: Cc1ncc(-c2ccnc(Nc3ccc(S(C)(=O)=O)cc3)n2)n1C(C)C
Procedure, shortened: as §1

[17] = compound: Cn1cc(-c2ccc3c(c2)CCN3C(=O)Cc2cccc(C(F)(F)F)c2)c2c(N)ncnc21
Procedure, shortened: as §1

[18] = compound: Cn1cc(-c2ccc3nnc(C(F)(F)c4ccc5ncccc5c4)n3n2)cn1
Procedure, shortened: as §1

[19] = compound: Cn1cncc1[C@@](N)(c1ccc(Cl)cc1)c1ccc2c(c1)c(-c1cccc(Cl)c1)cc(=O)n2C [tipifarnib]
Procedure, shortened: as §1

[20] = compound: FC(F)(F)c1ccc(/C=C/c2nc(COc3ccc(CCCCn4ccnn4)cc3)co2)cc1 [mubritinib]
Procedure, shortened: as §1

Measured: log2 fold change

GSS (UniProt P48637)
inactive: [1] -0.005 | [2] 0.043 | [3] 0.038 | [4] -0.007 | [5] 0.023 | [6] 0.015 | [7] -0.019 | [8] -0.04 | [9] -0.035 | [10] 0.026 | [11] -0.038 | [12] -0.052 | [13] 0.001 | [14] 0.014 | [15] 0.03 | [16] -0.006 | [17] 0.022 | [18] 0.009 | [19] -0.037 | [20] 0.049

HDAC3 isoform 2 (UniProt O15379)
inactive: [1] 0.022 | [2] 0.107 | [3] 0.085 | [4] 0.143 | [5] 0.049 | [6] -0.081 | [7] 0.016 | [8] -0.044 | [9] -0.098 | [10] 0.085 | [11] 0.033 | [12] 0.062 | [13] -0.007 | [14] -0.09 | [15] -0.179 | [16] -0.14 | [17] -0.088 | [18] -0.101 | [19] 0.125 | [20] 0.079

H1-5 (UniProt P16401)
inactive: [1] 0.013 | [2] 0.068 | [3] -0.521 | [4] 0.355 | [5] -0.179 | [6] 0.26 | [7] -0.048 | [8] 0.012 | [9] 0.226 | [10] -0.15 | [11] 0.333 | [12] -0.063 | [13] 0.05 | [14] 0.049 | [15] 0.178 | [16] -0.105 | [17] -0.322 | [18] -0.131 | [19] 0.094 | [20] -0.134

GTF2F1 (UniProt P35269)
inactive: [1] 0.04 | [2] -0.008 | [3] -0.003 | [4] 0.003 | [5] 0.021 | [6] 0.071 | [7] -0.044 | [8] -0.037 | [9] -0.017 | [10] 0.076 | [11] 0.007 | [12] -0.014 | [13] -0.014 | [14] -0.018 | [15] -0.002 | [16] -0.052 | [17] -0.015 | [18] -0.025 | [19] 0.01 | [20] 0.042

HELQ (UniProt Q8TDG4)
inactive: [1] -0.112 | [2] -0.003 | [3] -0.065 | [4] 0.077 | [5] 0.105 | [6] -0.003 | [7] -0.116 | [8] -0.071 | [9] 0.007 | [10] 0.033 | [11] -0.038 | [12] -0.164 | [13] 0.263 | [14] -0.06 | [15] 0.086 | [16] -0.042 | [17] -0.107 | [18] -0.168 | [19] -0.066 | [20] 0.132

HEBP1 (UniProt Q9NRV9)
inactive: [1] -0.072 | [2] 0.303 | [3] 0.085 | [4] -0.043 | [5] 0.109 | [6] 0.431 | [7] 0.118 | [8] -0.011 | [9] 0.224 | [10] -0.175 | [11] 0.081 | [12] -0.128 | [13] 0.454 | [14] 0.195 | [15] 0.303 | [16] -0.038 | [17] 0.113 | [18] -0.038 | [19] -0.051 | [20] 0.028

HCFC1 isoform 4 (UniProt P51610)
inactive: [1] 0.009 | [2] 0.005 | [3] 0.018 | [4] -0.012 | [5] 0.023 | [6] -0.01 | [7] 0.012 | [8] 0.019 | [9] -0.041 | [10] 0.096 | [11] 0.046 | [12] -0.004 | [13] -0.066 | [14] 0.092 | [15] -0.088 | [16] 0.034 | [17] 0.037 | [18] 0 | [19] -0.056 | [20] 0.027

GTSE1 (UniProt Q9NYZ3)
inactive: [1] 0.042 | [2] -0.033 | [3] -0.351 | [4] 0.164 | [5] -0.129 | [6] 0.007 | [7] 0.043 | [8] -0.169 | [9] 0.158 | [10] -0.173 | [11] 0.12 | [12] -0.005 | [13] 0.021 | [14] 0.053 | [15] 0.22 | [16] -0.028 | [17] 0.047 | [18] 0.005 | [19] 0.064 | [20] -0.121

GYPA (UniProt P02724)
inactive: [1] -0.081 | [2] -0.032 | [3] -0.078 | [4] -0.193 | [5] 0.038 | [6] -0.058 | [7] -0.083 | [8] -0.062 | [9] -0.015 | [10] -0.12 | [11] 0.012 | [12] 0.017 | [13] 0.384 | [14] 0.018 | [15] 0.213 | [16] 0.069 | [17] 0.118 | [18] -0.164 | [19] -0.084 | [20] 0.05

HELB (UniProt Q8NG08)
inactive: [1] 0.041 | [2] -0.093 | [3] 0.027 | [4] -0.015 | [5] 0.021 | [6] -0.045 | [7] 0.11 | [8] -0.037 | [9] 0.005 | [10] 0.025 | [11] -0.03 | [12] -0.025 | [13] 0.026 | [14] 0.039 | [15] 0.007 | [16] -0.018 | [17] -0.011 | [18] -0.013 | [19] -0.082 | [20] 0.048

H4C1 (UniProt P62805)
inactive: [1] -0.173 | [2] -0.251 | [3] -0.287 | [4] 0.435 | [5] -0.177 | [6] 0.041 | [7] 0.189 | [8] 0.015 | [9] 0.227 | [10] -0.192 | [11] 0.194 | [12] -0.146 | [13] -0.09 | [14] -0.056 | [15] 0.105 | [16] -0.083 | [17] -0.391 | [18] -0.133 | [19] 0.037 | [20] -0.166

GTSF1 (UniProt Q8WW33)
inactive: [1] 0.013 | [2] 0.052 | [3] 0.121 | [4] -0.097 | [5] 0.015 | [6] -0.011 | [7] 0 | [8] -0.011 | [9] -0.017 | [10] -0.091 | [11] -0.073 | [12] 0.01 | [13] 0.074 | [14] 0.003 | [15] 0.033 | [16] -0.019 | [17] 0.136 | [18] 0.274 | [19] 0.025 | [20] 0.021

GSPT1 isoform 3 (UniProt P15170)
inactive: [1] 0.082 | [2] -0.008 | [3] 0.083 | [4] -0.049 | [5] 0.046 | [6] -0.074 | [7] -0.01 | [8] -0.005 | [9] 0.014 | [10] 0.074 | [11] -0.003 | [12] 0.014 | [13] 0.057 | [14] 0.022 | [15] -0.006 | [16] 0.017 | [17] 0.032 | [18] 0.036 | [19] -0.055 | [20] 0.02

HDLBP (UniProt Q00341)
inactive: [1] 0.059 | [2] -0.157 | [3] -0.272 | [4] 0.421 | [5] -0.142 | [6] 0.208 | [7] 0.115 | [8] 0.074 | [9] 0.163 | [10] -0.277 | [11] 0.156 | [12] -0.046 | [13] -0.044 | [14] -0.143 | [15] 0 | [16] 0.012 | [17] -0.064 | [18] -0.103 | [19] 0.079 | [20] -0.165

H1-2 (UniProt P16403)
inactive: [1] 0.014 | [2] -0.024 | [3] -0.342 | [4] 0.407 | [5] -0.23 | [6] 0.357 | [7] -0.033 | [8] -0.015 | [9] 0.275 | [10] -0.045 | [11] 0.361 | [12] -0.055 | [13] 0.019 | [14] -0.014 | [15] 0.136 | [16] -0.09 | [17] -0.271 | [18] -0.055 | [19] 0.189 | [20] -0.148

HEMGN (UniProt Q9BXL5)
inactive: [1] -0.022 | [2] 0.053 | [3] -0.021 | [4] 0.028 | [5] 0.027 | [6] 0.063 | [7] -0.019 | [8] 0.016 | [9] -0.003 | [10] -0.011 | [11] 0.008 | [12] -0.063 | [13] -0.003 | [14] 0.05 | [15] 0.045 | [16] 0.004 | [17] -0.014 | [18] 0.02 | [19] 0.035 | [20] -0.009

2 entries picked at random from the list so far, as already listed:
H4C1 (UniProt P62805)
inactive: [1] -0.173 | [2] -0.251 | [3] -0.287 | [4] 0.435 | [5] -0.177 | [6] 0.041 | [7] 0.189 | [8] 0.015 | [9] 0.227 | [10] -0.192 | [11] 0.194 | [12] -0.146 | [13] -0.09 | [14] -0.056 | [15] 0.105 | [16] -0.083 | [17] -0.391 | [18] -0.133 | [19] 0.037 | [20] -0.166

HDAC3 isoform 2 (UniProt O15379)
inactive: [1] 0.022 | [2] 0.107 | [3] 0.085 | [4] 0.143 | [5] 0.049 | [6] -0.081 | [7] 0.016 | [8] -0.044 | [9] -0.098 | [10] 0.085 | [11] 0.033 | [12] 0.062 | [13] -0.007 | [14] -0.09 | [15] -0.179 | [16] -0.14 | [17] -0.088 | [18] -0.101 | [19] 0.125 | [20] 0.079
